31 compounds from the supplement of paper PMC12889115 can be followed below.

For the experiment, the system named is Salmonella enterica serovar Typhimurium SL1344. The experiment can be described thus: bacterial growth OD600 after 18 h with compound and polymyxin B; higher = more bacterial growth (less inhibition). As to conditions: 50 µM, Mueller-Hinton broth.

Molecules are shown by their SMILES. The list shows a part of the results. Values are raw readings; no control value is given beside them.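 First-pass screen: polymyxin B was added at a level that permeabilizes the Salmonella outer membrane while sparing the inner membrane. DMSO wells, with and without polymyxin B, defined maximum growth. Because plates differed from one another, each plate's data were ranked separately and the compounds with the lowest OD600 were carried forward as hits.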

With `CCOC(=O)C1(Cc2ccc(OC)cc2)CCN(C(=O)c2cccc(Cl)c2)CC1`, the “bacterial growth OD600” value (polymyxin B 1 µg/mL) is 0.503. Same read-out and setting: to `CN(Cc1cccc2cnccc12)C(=O)c1cn(Cc2cccc(C(F)(F)F)c2)nn1` belongs 0.784.

Consider `COC(=O)C1CCCCN1C(=O)c1c(OC)cc(=O)n2c1CCN(Cc1cccs1)CC2` (stereo unspecified), for which, under “polymyxin B 0.75 µg/mL”, the “bacterial growth OD600” value amounted to 0.787.

On to `COc1ccc(C(=O)N(CCO)Cc2ccccc2)cc1OC1CCN(C(C)=O)CC1`, for which the “bacterial growth OD600” value (polymyxin B 1 µg/mL) was determined as 0.927. Still for that read-out and setting: to `CCN(CC)c1ncccc1CNC(=O)c1cnc(C)cn1` belongs 0.987; to `COCC(=O)NC1CC(=O)N(CCc2ccc(OC)cc2)C1` (stereo unspecified), 0.891. Turning to `O=C([C@@H]1C[C@@H]2C=C[C@H]1C2)N1CCC(C2(c3cccnc3)NC(=O)N(CCc3cccs3)C2=O)CC1` (stereo partly specified), the “bacterial growth OD600” value (polymyxin B 0.75 µg/mL) worked out at 0.817. Regarding `Cc1[nH]c2c(CNCc3ccc4nonc4c3)cc(F)cc2c1C`, the “bacterial growth OD600” value (polymyxin B 1 µg/mL) worked out at 0.792.

Turning to `Cc1ccccc1-n1ncc(C(C)NC(=O)Cc2ccc3c(c2)OCO3)c1C` (stereo unspecified), under “polymyxin B 1 µg/mL”, the “bacterial growth OD600” value turned out to be 0.891. The same measure, in the same setting: next, `C=CCC(=O)N1CCC2(CCCN(Cc3cccc(F)c3F)C2=O)C1` (stereo unspecified): 0.458. As for `Cc1nc(CN2C[C@H]3OC(=O)N(CCCc4ccc(F)cc4)[C@H]3C2)c[nH]1`, the “bacterial growth OD600” value (polymyxin B 0.75 µg/mL) is 0.855.

`CC(=O)c1ccc(C(=O)N(C)CC2CCCN(CCc3ccc(F)cc3)C2)cc1` (stereo unspecified): the “bacterial growth OD600” value (polymyxin B 1 µg/mL) worked out at 0.753. `CC1CCN(CC2(O)CCCN(Cc3ccccc3F)C2=O)CC1` (stereo unspecified): the “bacterial growth OD600” value (polymyxin B 1 µg/mL) came out at 0.874.

Take `O=C(CCn1cncn1)N1CCCC(CCc2cccc(F)c2)C1` (stereo unspecified): where the note is “polymyxin B 0.75 µg/mL”, the “bacterial growth OD600” value came out at 0.81.

For `Cc1nc2ccccc2n1Cc1cc(C(=O)N(C)Cc2ccon2)n[nH]1`, the “bacterial growth OD600” value (polymyxin B 1 µg/mL) was determined as 0.895. Regarding `CN(Cc1ccccc1)C(=O)c1nc2ccccn2c1CNC1CCCC1`, the “bacterial growth OD600” value (polymyxin B 1 µg/mL) came out at 0.598.

Regarding `CCO[C@H]1[C@H](NC(=O)CC)c2ccccc2C12CCN(Cc1ccc(OCCO)cc1)CC2`, for the setting “polymyxin B 0.75 µg/mL”, the “bacterial growth OD600” value was determined as 0.843. With `CCN1CCN(C2(C(=O)NCC(C)(C)CO)Cc3ccccc3C2)CC1`, the “bacterial growth OD600” value (polymyxin B 0.75 µg/mL) worked out at 0.866.

On to `CCC(=O)N[C@@H]1c2ccccc2C2(CCN(C(=O)c3cc(CC)on3)CC2)[C@H]1OCc1cccnc1`, for which the “bacterial growth OD600” value (polymyxin B 0.75 µg/mL) is 0.879. Same read-out and setting: to `CCN1CCN(C2(C(=O)N(C)Cc3nccs3)Cc3ccccc3C2)CC1` belongs 0.941. In the case of `COc1ccc(NC(=O)CCC2CCCN(Cc3cccc(C)n3)C2)c(C)c1` (stereo unspecified), where the note is “polymyxin B 1 µg/mL”, the “bacterial growth OD600” value came to 0.937. Regarding `Cc1nn(C)cc1CN(C)Cc1c(C(=O)N(C)Cc2ccccc2)nc2ccccn12`, for the setting “polymyxin B 0.75 µg/mL”, the “bacterial growth OD600” value was 0.855. For `Cc1c(C(=O)NC(C)(C)CO)sc2ncnc(NCCc3ccccc3)c12`, the “bacterial growth OD600” value (polymyxin B 0.75 µg/mL) worked out at 0.863. For `CCOC(=O)C1(CCCc2ccccc2)CCN(C(=O)C2CC23CCC3)CC1` (stereo unspecified), where the note is “polymyxin B 1 µg/mL”, the “bacterial growth OD600” value was 0. On the same count and under the same terms, next, `COc1ccccc1CN1C(=O)O[C@@H]2CN(C)C[C@@H]21`: 1.12; `O=C1CCC(C(=O)N2CCCCCCC2)CN1CCCc1ccccc1` (stereo unspecified): 0.899. With `C=CCCC(=O)NC1CCCN(CCc2ccccc2)C1` (stereo unspecified), the “bacterial growth OD600” value (polymyxin B 0.75 µg/mL) is 0.809. In the case of `CCN(CCO)Cc1cn(-c2ccccc2C)nc1-c1ccc(OC)c(F)c1`, the “bacterial growth OD600” value (polymyxin B 1 µg/mL) stood at 0.951. On to `O=C(NCc1ccccc1)c1cccc(OC2CCN(Cc3ccc(CO)o3)CC2)c1`, for which the “bacterial growth OD600” value (polymyxin B 1 µg/mL) turned out to be 0.889. With `CCN1CCC(NC(C)c2cnc(N3CCCCCCC3)nc2C)CC1` (stereo unspecified), the “bacterial growth OD600” value (polymyxin B 0.75 µg/mL) was 0.773. `COc1cc(NC(=O)CCC2CCCN(C(=O)c3ccnn3C)C2)cc(OC)c1` (stereo unspecified): where the note is “polymyxin B 1 µg/mL”, the “bacterial growth OD600” value amounted to 1.04.
